Measured values reported in PMC6770448.
Results are given in words; binding and its absence hold for the method and conditions named. A result given as binding can be weak or reduced; the word gives no strength. Sequences can lack the tags named with a protein.

How the values were obtained:
Experiment in all cases: two-hybrid; Matchmaker two-hybrid system (Takara); TCP-BD and ATHB-AD; dilutions of yeast spotted on medium with or without histidine
[1] = molecular target: T1, TCP17 fused to BD (yeast two-hybrid) (Arabidopsis thaliana) (UniProt Q9LEZ9)
T1 sequence: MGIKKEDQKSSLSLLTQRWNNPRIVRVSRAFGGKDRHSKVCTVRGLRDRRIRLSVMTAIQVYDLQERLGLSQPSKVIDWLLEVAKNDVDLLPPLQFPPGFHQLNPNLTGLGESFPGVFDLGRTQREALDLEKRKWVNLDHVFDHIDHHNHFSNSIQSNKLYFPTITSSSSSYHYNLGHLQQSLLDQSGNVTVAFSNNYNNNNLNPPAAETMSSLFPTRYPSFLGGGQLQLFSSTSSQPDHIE

[2] = molecular target: T2, TCP13 fused to BD (yeast two-hybrid) (Arabidopsis thaliana) (UniProt Q9S7W5)
T2 sequence: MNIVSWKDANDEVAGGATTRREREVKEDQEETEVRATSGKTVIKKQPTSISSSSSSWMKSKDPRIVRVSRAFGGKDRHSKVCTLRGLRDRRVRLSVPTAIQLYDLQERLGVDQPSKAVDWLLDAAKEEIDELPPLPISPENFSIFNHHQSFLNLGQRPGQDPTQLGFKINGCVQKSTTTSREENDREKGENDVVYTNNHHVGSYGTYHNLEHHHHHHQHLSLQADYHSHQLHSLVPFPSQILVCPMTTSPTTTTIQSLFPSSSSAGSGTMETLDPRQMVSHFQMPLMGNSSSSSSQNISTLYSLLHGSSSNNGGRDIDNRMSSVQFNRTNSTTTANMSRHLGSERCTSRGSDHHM

[3] = molecular target: T3, TCP5 fused to BD (yeast two-hybrid) (Arabidopsis thaliana) (UniProt Q9FME3)
T3 sequence: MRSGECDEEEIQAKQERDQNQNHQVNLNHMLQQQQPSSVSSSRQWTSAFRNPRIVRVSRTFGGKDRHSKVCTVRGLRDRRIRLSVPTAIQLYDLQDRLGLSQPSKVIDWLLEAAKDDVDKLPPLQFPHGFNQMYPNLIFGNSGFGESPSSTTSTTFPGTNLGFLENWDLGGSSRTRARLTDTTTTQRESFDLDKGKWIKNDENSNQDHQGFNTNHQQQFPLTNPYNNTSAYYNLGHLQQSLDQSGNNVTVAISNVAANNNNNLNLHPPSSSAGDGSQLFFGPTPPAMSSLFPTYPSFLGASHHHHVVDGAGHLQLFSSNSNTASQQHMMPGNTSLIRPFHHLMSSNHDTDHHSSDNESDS

Measured: binding

ATHB2 C-terminal region fused to AD (yeast two-hybrid) (Arabidopsis thaliana) (domain or fragment)
binds: all assays above
